# From the supplement of paper PMC8728848
# The list shows a part of the results.
# What was measured:
# Experiment in all cases: glycan array binding signal (z-score within array); higher = stronger binding
# Settings in all cases: glycan notation: IUPAC condensed, linker removed
# [1] = molecular target: Neu5Ac(a2-3)Gal(b1-4)[Fuc(a1-3)]GlcNAc(b1-3)GalNAc
# Method in brief: (§1)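 Arrays were curated from the Consortium for Functional Glycomics database, 3228 in total, and kept only where the protein sequence was available. Binding is expressed as a within-array Z-score. This score was averaged across arrays of the same protein sequence at different concentrations or buffers and across linkers, and negative values can be read as non-binding.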
# [2] = molecular target: Neu5Ac(a2-3)Gal(b1-4)[Fuc(a1-3)]GlcNAc(b1-6)[Gal(b1-3)]GalNAc
# Method in brief: as §1
# [3] = molecular target: Neu5Ac(a2-3)Gal(b1-4)[Fuc(a1-3)]GlcNAc(b1-6)[Neu5Ac(a2-3)Gal(b1-3)]GalNAc
# Method in brief: as §1
# [4] = molecular target: Neu5Ac(a2-3)Gal(b1-4)[Fuc(a1-3)]GlcNAc6S
# Method in brief: as §1
# [5] = molecular target: Neu5Ac(a2-3)Gal6S(b1-4)GlcNAc
# Method in brief: as §1
# [6] = molecular target: Neu5Ac(a2-3)Gal6S(b1-4)[Fuc(a1-3)]GlcNAc
# Method in brief: as §1
# Neu5Ac(a2-3)GalNAc = molecular target: Neu5Ac(a2-3)GalNAc
# Method in brief: as §1
# [7] = molecular target: Neu5Ac(a2-3)GalNAc(b1-4)GlcNAc
# Method in brief: as §1
# [8] = molecular target: Neu5Ac(a2-3)[GalNAc(b1-4)]Gal(b1-4)Glc
# Method in brief: as §1
# [9] = molecular target: Neu5Ac(a2-3)[GalNAc(b1-4)]Gal(b1-4)GlcNAc
# Method in brief: as §1
# [10] = molecular target: Neu5Ac(a2-3)[GalNAc(b1-4)]Gal(b1-4)GlcNAc(b1-3)GalNAc
# Method in brief: as §1
# [11] = molecular target: Neu5Ac(a2-3)[Neu5Ac(a2-6)]GalNAc
# Method in brief: as §1
# Neu5Ac(a2-6)Gal = molecular target: Neu5Ac(a2-6)Gal
# Method in brief: as §1
# [12] = molecular target: Neu5Ac(a2-6)Gal(b1-3)GlcNAc(b1-3)[Gal(b1-4)GlcNAc(b1-6)]Gal(b1-4)Glc
# Method in brief: as §1
# Neu5Ac(a2-6)Gal(b1-4)Glc = molecular target: Neu5Ac(a2-6)Gal(b1-4)Glc
# Method in brief: as §1
# [13] = molecular target: Neu5Ac(a2-6)Gal(b1-4)GlcNAc
# Method in brief: as §1
# [14] = molecular target: Neu5Ac(a2-6)Gal(b1-4)GlcNAc(b1-2)Man
# Method in brief: as §1
# [15] = molecular target: Neu5Ac(a2-6)Gal(b1-4)GlcNAc(b1-2)Man(a1-3)Man(b1-4)GlcNAc(b1-4)GlcNAc
# Method in brief: as §1
# [16] = molecular target: Neu5Ac(a2-6)Gal(b1-4)GlcNAc(b1-2)Man(a1-3)[Gal(b1-4)GlcNAc(b1-2)Man(a1-6)]Man(b1-4)GlcNAc(b1-4)GlcNAc
# Method in brief: as §1
# [17] = molecular target: Neu5Ac(a2-6)Gal(b1-4)GlcNAc(b1-2)Man(a1-3)[GlcNAc(b1-2)Man(a1-6)]Man(b1-4)GlcNAc(b1-4)GlcNAc
# Method in brief: as §1
# [18] = molecular target: Neu5Ac(a2-6)Gal(b1-4)GlcNAc(b1-2)Man(a1-3)[GlcNAc(b1-2)Man(b1-4)GlcNAc(b1-2)Man(a1-6)]Man(b1-4)GlcNAc(b1-4)GlcNAc
# Method in brief: as §1
# [19] = molecular target: Neu5Ac(a2-6)Gal(b1-4)GlcNAc(b1-2)Man(a1-3)[GlcNAc(b1-4)][Neu5Ac(a2-6)Gal(b1-4)GlcNAc(b1-2)Man(a1-6)]Man(b1-4)GlcNAc(b1-4)GlcNAc
# Method in brief: as §1
# [20] = molecular target: Neu5Ac(a2-6)Gal(b1-4)GlcNAc(b1-2)Man(a1-3)[Man(a1-6)]Man(b1-4)GlcNAc(b1-4)GlcNAc
# Method in brief: as §1
# [21] = molecular target: Neu5Ac(a2-6)Gal(b1-4)GlcNAc(b1-2)Man(a1-3)[Neu5Ac(a2-3)Gal(b1-4)GlcNAc(b1-2)Man(a1-6)]Man(b1-4)GlcNAc(b1-4)GlcNAc
# Method in brief: as §1
# [22] = molecular target: Neu5Ac(a2-6)Gal(b1-4)GlcNAc(b1-2)Man(a1-3)[Neu5Ac(a2-6)Gal(b1-4)GlcNAc(b1-2)Man(a1-6)]Man(b1-4)GlcNAc(b1-4)GlcNAc
# Method in brief: as §1
# [23] = molecular target: Neu5Ac(a2-6)Gal(b1-4)GlcNAc(b1-2)Man(a1-3)[Neu5Ac(a2-6)Gal(b1-4)GlcNAc(b1-2)Man(a1-6)]Man(b1-4)GlcNAc(b1-4)[Fuc(a1-6)]GlcNAc
# Method in brief: as §1
# [24] = molecular target: Neu5Ac(a2-6)Gal(b1-4)GlcNAc(b1-2)Man(a1-6)Man(b1-4)GlcNAc(b1-4)GlcNAc
# Method in brief: as §1
# [25] = molecular target: Neu5Ac(a2-6)Gal(b1-4)GlcNAc(b1-2)Man(a1-6)[Gal(b1-4)GlcNAc(b1-2)Man(a1-3)]Man(b1-4)GlcNAc(b1-4)GlcNAc
# Method in brief: as §1
# [26] = molecular target: Neu5Ac(a2-6)Gal(b1-4)GlcNAc(b1-2)Man(a1-6)[GlcNAc(b1-2)Man(a1-3)]Man(b1-4)GlcNAc(b1-4)GlcNAc
# Method in brief: as §1
# [27] = molecular target: Neu5Ac(a2-6)Gal(b1-4)GlcNAc(b1-2)Man(a1-6)[Man(a1-3)]Man(b1-4)GlcNAc(b1-4)GlcNAc
# Method in brief: as §1
# [28] = molecular target: Neu5Ac(a2-6)Gal(b1-4)GlcNAc(b1-2)[Neu5Ac(a2-6)Gal(b1-4)GlcNAc(b1-4)]Man(a1-3)[GlcNAc(b1-4)][Neu5Ac(a2-6)Gal(b1-4)GlcNAc(b1-2)[Neu5Ac(a2-6)Gal(b1-4)GlcNAc(b1-6)]Man(a1-6)]Man(b1-4)GlcNAc(b1-4)GlcNAc
# Method in brief: as §1
# [29] = molecular target: Neu5Ac(a2-6)Gal(b1-4)GlcNAc(b1-2)[Neu5Ac(a2-6)Gal(b1-4)GlcNAc(b1-4)]Man(a1-3)[GlcNAc(b1-4)][Neu5Ac(a2-6)Gal(b1-4)GlcNAc(b1-4)Man(a1-6)]Man(b1-4)GlcNAc(b1-4)GlcNAc
# Method in brief: as §1
# [30] = molecular target: Neu5Ac(a2-6)Gal(b1-4)GlcNAc(b1-2)[Neu5Ac(a2-6)Gal(b1-4)GlcNAc(b1-6)]Man(a1-6)[Neu5Ac(a2-6)Gal(b1-4)GlcNAc(b1-2)Man(a1-3)][GlcNAc(b1-4)]Man(b1-4)GlcNAc(b1-4)GlcNAc
# Method in brief: as §1
# [31] = molecular target: Neu5Ac(a2-6)Gal(b1-4)GlcNAc(b1-3)Gal(b1-3)GlcNAc
# Method in brief: as §1
# [32] = molecular target: Neu5Ac(a2-6)Gal(b1-4)GlcNAc(b1-3)Gal(b1-4)GlcNAc
# Method in brief: as §1
# [33] = molecular target: Neu5Ac(a2-6)Gal(b1-4)GlcNAc(b1-3)Gal(b1-4)GlcNAc(b1-2)Man(a1-3)[Neu5Ac(a2-6)Gal(b1-4)GlcNAc(b1-3)Gal(b1-4)GlcNAc(b1-2)Man(a1-6)]GalNAc
# Method in brief: as §1
# [34] = molecular target: Neu5Ac(a2-6)Gal(b1-4)GlcNAc(b1-3)Gal(b1-4)GlcNAc(b1-3)Gal(b1-4)GlcNAc
# Method in brief: as §1
# [35] = molecular target: Neu5Ac(a2-6)Gal(b1-4)GlcNAc(b1-3)Gal(b1-4)GlcNAc(b1-3)Gal(b1-4)GlcNAc(b1-2)Man(a1-3)[Neu5Ac(a2-6)Gal(b1-4)GlcNAc(b1-3)Gal(b1-4)GlcNAc(b1-3)Gal(b1-4)GlcNAc(b1-2)Man(a1-6)]GalNAc
# Method in brief: as §1
# [36] = molecular target: Neu5Ac(a2-6)Gal(b1-4)GlcNAc(b1-3)Gal(b1-4)GlcNAc(b1-3)GalNAc
# Method in brief: as §1
# [37] = molecular target: Neu5Ac(a2-6)Gal(b1-4)GlcNAc(b1-3)Gal(b1-4)GlcNAc(b1-3)[Neu5Ac(a2-6)Gal(b1-4)GlcNAc(b1-3)Gal(b1-4)GlcNAc(b1-6)]GalNAc
# Method in brief: as §1
# [38] = molecular target: Neu5Ac(a2-6)Gal(b1-4)GlcNAc(b1-3)Gal(b1-4)GlcNAc(b1-6)[Gal(b1-3)]GalNAc
# Method in brief: as §1
# [39] = molecular target: Neu5Ac(a2-6)Gal(b1-4)GlcNAc(b1-3)Gal(b1-4)[Fuc(a1-3)]GlcNAc(b1-3)Gal(b1-4)[Fuc(a1-3)]GlcNAc
# Method in brief: as §1
binder,measurement,setting,value
"Gal 10 (Homo sapiens), Q05315 (protein) MSLLPVPYTEAASLSTGSTVTIKGRPLVCFLNEPYLQVDFHTEMKEESDIVFHFQVCFGRRVVMNSREYGAWKQQVESKNMPFQDGQEFELSISVLPDKYQVMVNGQSSYTFDHRIKPEAVKMVQVWRDISLTKFNVSYLKR",glycan array binding signal (z-score),[1],1.77
same,glycan array binding signal (z-score),[2],1.08
same,glycan array binding signal (z-score),[3],-0.065
same,glycan array binding signal (z-score),[4],-0.32
same,glycan array binding signal (z-score),[5],-0.415
same,glycan array binding signal (z-score),[6],-0.196
same,glycan array binding signal (z-score),Neu5Ac(a2-3)GalNAc,-0.775
same,glycan array binding signal (z-score),[7],0.108
same,glycan array binding signal (z-score),[8],-0.169
same,glycan array binding signal (z-score),[9],-0.148
same,glycan array binding signal (z-score),[10],0.044
same,glycan array binding signal (z-score),[11],0.218
same,glycan array binding signal (z-score),Neu5Ac(a2-6)Gal,-0.001
same,glycan array binding signal (z-score),[12],-0.319
same,glycan array binding signal (z-score),Neu5Ac(a2-6)Gal(b1-4)Glc,-0.381
same,glycan array binding signal (z-score),[13],-0.362
same,glycan array binding signal (z-score),[14],-0.725
same,glycan array binding signal (z-score),[15],-0.164
same,glycan array binding signal (z-score),[16],0.089
same,glycan array binding signal (z-score),[17],-0.609
same,glycan array binding signal (z-score),[18],0.105
same,glycan array binding signal (z-score),[19],-0.479
same,glycan array binding signal (z-score),[20],-0.25
same,glycan array binding signal (z-score),[21],-0.596
same,glycan array binding signal (z-score),[22],0.509
same,glycan array binding signal (z-score),[23],-0.156
same,glycan array binding signal (z-score),[24],-0.652
same,glycan array binding signal (z-score),[25],0.567
same,glycan array binding signal (z-score),[26],0.248
same,glycan array binding signal (z-score),[27],-0.308
same,glycan array binding signal (z-score),[28],0.323
same,glycan array binding signal (z-score),[29],2.9
same,glycan array binding signal (z-score),[30],-0.595
same,glycan array binding signal (z-score),[31],-0.312
same,glycan array binding signal (z-score),[32],0.008
same,glycan array binding signal (z-score),[33],0.336
same,glycan array binding signal (z-score),[34],-0.967
same,glycan array binding signal (z-score),[35],3.41
same,glycan array binding signal (z-score),[36],0.199
same,glycan array binding signal (z-score),[37],-0.52
same,glycan array binding signal (z-score),[38],-0.176
same,glycan array binding signal (z-score),[39],-0.201
